The target in this test is T1, 53BP1 (immunoprecipitates of unstressed cells), Q12888.
T1 chain: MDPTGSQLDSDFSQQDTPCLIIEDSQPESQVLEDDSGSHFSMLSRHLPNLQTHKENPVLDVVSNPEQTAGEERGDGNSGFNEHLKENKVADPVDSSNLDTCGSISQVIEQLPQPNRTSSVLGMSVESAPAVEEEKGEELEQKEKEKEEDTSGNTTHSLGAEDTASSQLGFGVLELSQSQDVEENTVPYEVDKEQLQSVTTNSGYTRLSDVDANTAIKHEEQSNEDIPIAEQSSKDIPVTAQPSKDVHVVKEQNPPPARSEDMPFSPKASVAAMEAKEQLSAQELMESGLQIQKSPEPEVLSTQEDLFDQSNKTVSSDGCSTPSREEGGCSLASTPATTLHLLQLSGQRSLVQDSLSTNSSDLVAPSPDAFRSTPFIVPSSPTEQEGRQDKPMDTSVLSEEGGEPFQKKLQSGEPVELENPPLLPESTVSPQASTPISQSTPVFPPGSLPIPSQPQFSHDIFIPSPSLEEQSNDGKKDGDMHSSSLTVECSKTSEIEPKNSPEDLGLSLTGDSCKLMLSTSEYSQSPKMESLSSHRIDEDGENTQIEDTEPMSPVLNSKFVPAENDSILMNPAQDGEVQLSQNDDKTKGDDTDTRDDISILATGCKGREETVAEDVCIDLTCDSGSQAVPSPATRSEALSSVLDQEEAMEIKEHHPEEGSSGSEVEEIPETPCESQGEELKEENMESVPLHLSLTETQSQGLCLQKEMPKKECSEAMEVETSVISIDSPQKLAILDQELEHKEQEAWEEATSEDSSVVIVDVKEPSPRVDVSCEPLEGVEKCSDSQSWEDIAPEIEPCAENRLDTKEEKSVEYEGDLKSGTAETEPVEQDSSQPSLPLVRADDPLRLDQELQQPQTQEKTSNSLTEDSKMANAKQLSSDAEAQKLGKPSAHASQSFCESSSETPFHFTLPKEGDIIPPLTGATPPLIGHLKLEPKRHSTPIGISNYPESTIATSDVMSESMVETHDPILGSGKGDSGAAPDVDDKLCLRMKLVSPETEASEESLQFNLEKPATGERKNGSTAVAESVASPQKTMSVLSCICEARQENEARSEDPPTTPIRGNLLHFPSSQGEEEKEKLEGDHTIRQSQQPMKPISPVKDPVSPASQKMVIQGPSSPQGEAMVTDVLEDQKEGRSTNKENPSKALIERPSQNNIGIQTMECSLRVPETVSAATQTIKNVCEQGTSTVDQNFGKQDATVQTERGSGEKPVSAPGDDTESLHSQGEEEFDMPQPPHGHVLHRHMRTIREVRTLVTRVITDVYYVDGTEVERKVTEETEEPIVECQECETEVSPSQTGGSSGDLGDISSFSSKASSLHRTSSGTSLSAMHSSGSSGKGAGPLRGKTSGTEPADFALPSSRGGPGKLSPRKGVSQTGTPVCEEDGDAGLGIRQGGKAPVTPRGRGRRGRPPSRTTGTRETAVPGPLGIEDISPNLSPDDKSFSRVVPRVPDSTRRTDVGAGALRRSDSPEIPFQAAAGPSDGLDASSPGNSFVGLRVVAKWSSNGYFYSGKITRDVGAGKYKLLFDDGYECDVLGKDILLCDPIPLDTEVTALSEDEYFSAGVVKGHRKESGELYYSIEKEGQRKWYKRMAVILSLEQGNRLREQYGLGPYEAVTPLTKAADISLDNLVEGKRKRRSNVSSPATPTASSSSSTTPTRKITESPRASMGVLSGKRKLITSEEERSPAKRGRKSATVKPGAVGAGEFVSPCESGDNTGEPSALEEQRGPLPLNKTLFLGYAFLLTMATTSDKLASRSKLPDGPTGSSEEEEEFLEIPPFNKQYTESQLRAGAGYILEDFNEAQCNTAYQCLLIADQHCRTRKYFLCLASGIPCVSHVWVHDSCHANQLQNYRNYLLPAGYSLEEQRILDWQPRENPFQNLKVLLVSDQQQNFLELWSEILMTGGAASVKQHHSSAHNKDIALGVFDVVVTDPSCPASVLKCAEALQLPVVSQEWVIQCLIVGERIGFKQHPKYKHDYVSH
Briefly: affinity purification with mass spectrometry; USP28 and 53BP1 immunoprecipitates from unstressed cells, SDS-PAGE, in-gel digestion, LC-MS/MS. The settings on record: remark: other sources report otherwise.

This passage reports binding results from publication PMC11024517.

Results are given in words; binding and its absence hold for the method and conditions named. In cells and extracts the contact can be indirect. These calls come from enrichment with a bait or labelling near it, and not all partners need be listed.

B1: USP28 (immunoprecipitates of unstressed cells), Q96RU2 1-1077 (enzyme)
chain: MTAELQQDDAAGAADGHGSSCQMLLNQLREITGIQDPSFLHEALKASNGDITQAVSLLTDERVKEPSQDTVATEPSEVEGSAANKEVLAKVIDLTHDNKDDLQAAIALSLLESPKIQADGRDLNRMHEATSAETKRSKRKRCEVWGENPNPNDWRRVDGWPVGLKNVGNTCWFSAVIQSLFQLPEFRRLVLSYSLPQNVLENCRSHTEKRNIMFMQELQYLFALMMGSNRKFVDPSAALDLLKGAFRSSEEQQQDVSEFTHKLLDWLEDAFQLAVNVNSPRNKSENPMVQLFYGTFLTEGVREGKPFCNNETFGQYPLQVNGYRNLDECLEGAMVEGDVELLPSDHSVKYGQERWFTKLPPVLTFELSRFEFNQSLGQPEKIHNKLEFPQIIYMDRYMYRSKELIRNKRECIRKLKEEIKILQQKLERYVKYGSGPARFPLPDMLKYVIEFASTKPASESCPPESDTHMTLPLSSVHCSVSDQTSKESTSTESSSQDVESTFSSPEDSLPKSKPLTSSRSSMEMPSQPAPRTVTDEEINFVKTCLQRWRSEIEQDIQDLKTCIASTTQTIEQMYCDPLLRQVPYRLHAVLVHEGQANAGHYWAYIYNQPRQSWLKYNDISVTESSWEEVERDSYGGLRNVSAYCLMYINDKLPYFNAEAAPTESDQMSEVEALSVELKHYIQEDNWRFEQEVEEWEEEQSCKIPQMESSTNSSSQDYSTSQEPSVASSHGVRCLSSEHAVIVKEQTAQAIANTARAYEKSGVEAALSEVMLSPAMQGVILAIAKARQTFDRDGSEAGLIKAFHEEYSRLYQLAKETPTSHSDPRLQHVLVYFFQNEAPKRVVERTLLEQFADKNLSYDERSISIMKVAQAKLKEIGPDDMNMEEYKKWHEDYSLFRKVSVYLLTGLELYQKGKYQEALSYLVYAYQSNAALLMKGPRRGVKESVIALYRRKCLLELNAKAASLFETNDDHSVTEGINVMNELIIPCIHLIINNDISKDDLDAIEVMRNHWCSYLGQDIAENLQLCLGEFLPRLLDPSAEIIVLKEPPTIRPNSPYDLCSRFAAVMESIQGVSTVTVK
On to B1, for which the binding entry was “binds”.
